These are yes or no findings as the source states them, for the method shown. Binding seen in cells or lysates may run through a third protein. Some entries that bind do so weakly or less than the wild type.
Key:
[1] = target: Survival motor neuron protein (human (endogenous in H929)) (UniProt Q16637); experiment: co-IP; untransduced H929 lysate in RSB buffer (100 mM NaCl, 2.5 mM MgCl2, 0.1% NP40, 10 mM Hepes pH 7.4); IP with 2 µg anti-GEMIN5, anti-SMN or normal mouse IgG, 2 hours at 4°C, Protein G magnetic beads; western blot
[2] = target: Gem-associated protein 5 (human (endogenous in H929)) (UniProt Q8TEQ6); experiment: as above

Sequences of proteins named here, by UniProt entry; tags and fusion partners are left off. Residues count along the entry.
UniProt Q16637: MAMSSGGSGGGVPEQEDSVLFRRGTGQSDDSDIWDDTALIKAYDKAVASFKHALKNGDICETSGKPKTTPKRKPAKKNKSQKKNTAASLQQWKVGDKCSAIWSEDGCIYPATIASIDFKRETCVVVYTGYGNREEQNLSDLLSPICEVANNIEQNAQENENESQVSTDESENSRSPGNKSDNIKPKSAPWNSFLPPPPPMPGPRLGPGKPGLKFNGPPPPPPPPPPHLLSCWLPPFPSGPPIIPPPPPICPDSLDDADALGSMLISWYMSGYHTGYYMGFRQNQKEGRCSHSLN
UniProt Q8TEQ6: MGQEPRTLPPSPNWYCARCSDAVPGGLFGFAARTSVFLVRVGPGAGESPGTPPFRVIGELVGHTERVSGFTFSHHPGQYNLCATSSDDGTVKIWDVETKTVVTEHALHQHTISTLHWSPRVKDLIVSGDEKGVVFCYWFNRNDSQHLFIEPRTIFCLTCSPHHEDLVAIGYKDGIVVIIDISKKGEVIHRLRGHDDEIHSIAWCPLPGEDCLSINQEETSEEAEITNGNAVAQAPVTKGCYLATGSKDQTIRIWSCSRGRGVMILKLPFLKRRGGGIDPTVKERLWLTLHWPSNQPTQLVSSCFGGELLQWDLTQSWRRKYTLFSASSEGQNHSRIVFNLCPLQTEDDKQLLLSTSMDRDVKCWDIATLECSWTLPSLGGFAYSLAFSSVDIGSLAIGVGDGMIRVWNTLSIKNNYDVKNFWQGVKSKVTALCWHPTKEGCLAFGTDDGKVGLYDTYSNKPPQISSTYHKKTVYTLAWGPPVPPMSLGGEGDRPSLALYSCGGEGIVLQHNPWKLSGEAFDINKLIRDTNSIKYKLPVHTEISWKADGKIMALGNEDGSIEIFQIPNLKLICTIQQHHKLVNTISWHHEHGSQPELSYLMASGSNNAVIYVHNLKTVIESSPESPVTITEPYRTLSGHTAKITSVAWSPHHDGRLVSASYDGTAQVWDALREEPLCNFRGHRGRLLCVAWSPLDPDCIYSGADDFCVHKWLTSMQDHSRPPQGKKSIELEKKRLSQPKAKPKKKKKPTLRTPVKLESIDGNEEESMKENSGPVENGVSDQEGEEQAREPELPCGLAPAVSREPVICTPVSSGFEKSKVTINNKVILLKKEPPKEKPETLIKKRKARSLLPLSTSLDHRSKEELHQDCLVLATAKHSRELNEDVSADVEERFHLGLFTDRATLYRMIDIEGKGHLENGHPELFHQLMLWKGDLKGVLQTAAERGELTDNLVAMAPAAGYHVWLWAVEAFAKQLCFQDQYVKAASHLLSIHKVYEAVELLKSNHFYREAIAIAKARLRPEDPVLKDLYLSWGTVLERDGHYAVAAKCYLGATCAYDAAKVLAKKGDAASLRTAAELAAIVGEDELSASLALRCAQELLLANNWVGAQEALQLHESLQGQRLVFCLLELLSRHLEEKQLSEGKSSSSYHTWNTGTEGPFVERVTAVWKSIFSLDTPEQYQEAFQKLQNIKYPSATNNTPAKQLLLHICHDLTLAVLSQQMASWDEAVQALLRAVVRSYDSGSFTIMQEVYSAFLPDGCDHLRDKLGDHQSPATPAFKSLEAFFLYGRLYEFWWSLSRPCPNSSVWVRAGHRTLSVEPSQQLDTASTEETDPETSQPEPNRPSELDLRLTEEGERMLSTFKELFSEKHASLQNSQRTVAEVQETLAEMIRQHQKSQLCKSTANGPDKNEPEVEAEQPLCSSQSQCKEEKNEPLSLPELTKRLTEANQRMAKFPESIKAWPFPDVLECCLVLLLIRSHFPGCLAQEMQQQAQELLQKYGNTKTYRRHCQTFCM
UniProt Q9UHI6: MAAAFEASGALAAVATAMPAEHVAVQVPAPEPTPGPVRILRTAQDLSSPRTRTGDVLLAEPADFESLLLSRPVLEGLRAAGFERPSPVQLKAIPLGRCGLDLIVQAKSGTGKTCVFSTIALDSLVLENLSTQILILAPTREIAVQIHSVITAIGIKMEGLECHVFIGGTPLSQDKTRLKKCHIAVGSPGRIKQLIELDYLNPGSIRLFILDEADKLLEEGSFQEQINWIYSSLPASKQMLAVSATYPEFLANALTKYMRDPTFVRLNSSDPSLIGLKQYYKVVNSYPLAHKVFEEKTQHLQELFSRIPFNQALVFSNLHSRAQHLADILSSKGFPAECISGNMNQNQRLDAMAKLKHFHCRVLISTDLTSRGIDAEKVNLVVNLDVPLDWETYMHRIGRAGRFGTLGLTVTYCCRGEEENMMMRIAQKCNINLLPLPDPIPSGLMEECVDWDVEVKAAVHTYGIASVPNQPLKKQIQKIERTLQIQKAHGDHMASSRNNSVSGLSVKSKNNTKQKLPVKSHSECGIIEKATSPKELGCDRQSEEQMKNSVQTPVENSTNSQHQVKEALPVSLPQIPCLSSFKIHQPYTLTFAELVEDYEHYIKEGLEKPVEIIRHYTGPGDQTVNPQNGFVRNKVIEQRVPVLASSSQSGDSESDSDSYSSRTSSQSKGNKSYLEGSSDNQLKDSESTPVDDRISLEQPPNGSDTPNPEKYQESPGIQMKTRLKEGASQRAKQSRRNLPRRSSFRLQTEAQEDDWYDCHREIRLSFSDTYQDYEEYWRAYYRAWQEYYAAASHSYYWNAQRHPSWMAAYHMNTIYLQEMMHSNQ
UniProt O96028, residues 782-1365: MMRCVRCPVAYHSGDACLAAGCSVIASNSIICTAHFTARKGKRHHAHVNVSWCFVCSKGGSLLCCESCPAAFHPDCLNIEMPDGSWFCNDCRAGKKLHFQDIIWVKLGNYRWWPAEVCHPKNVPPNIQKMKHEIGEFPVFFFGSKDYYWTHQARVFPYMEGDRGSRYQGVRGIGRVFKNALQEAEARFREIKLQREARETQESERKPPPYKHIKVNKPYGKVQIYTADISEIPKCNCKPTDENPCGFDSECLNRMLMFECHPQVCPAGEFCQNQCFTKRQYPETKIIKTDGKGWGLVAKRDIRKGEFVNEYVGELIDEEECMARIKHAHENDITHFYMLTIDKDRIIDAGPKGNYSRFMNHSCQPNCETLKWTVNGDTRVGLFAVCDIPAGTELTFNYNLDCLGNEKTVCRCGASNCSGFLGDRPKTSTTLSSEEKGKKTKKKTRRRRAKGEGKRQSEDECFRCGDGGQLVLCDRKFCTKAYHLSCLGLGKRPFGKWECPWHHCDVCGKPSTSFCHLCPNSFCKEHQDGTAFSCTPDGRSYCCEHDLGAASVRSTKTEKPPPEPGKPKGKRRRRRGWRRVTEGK

binding [2]	Substance	binding [1]
binds	Probable ATP-dependent RNA helicase DDX20 (from UniProt Q9UHI6 1-824)	binds
binds	endogenous REIIBP (from UniProt O96028-4 1-584)	binds

From article PMC4055699
